Assay results from paper PMC9916574.
No constants are given. Whether binding was seen depends on the method and setting. In cells and extracts the contact can be indirect. Some binding calls cover weakened binding; strength is not graded here. Where a sequence is shown, tags or fusion partners need not be part of it.

Biological target: endogenous p53 (human (endogenous in HEK293T)) (UniProt P04637)
Test: co-IP; purified recombinant RBBP6-p53BD added to HEK293T cell lysate, 3 h at 4°C; anti-p53 antibody, protein A agarose; beads washed 5 times with PBS; two elution steps; Western blot with anti-polyhistidine; only the binder purified

binding: binds
B1: p53 binding domain of Retinoblastoma binding protein 6 (RBBP6), polyhistidine-tagged (domain or fragment, UniProt Q7Z6E9-1 1380-1726)
chain: VSHEIIQHEVKSSKNSASSEKGKTKDRDYSVLEKENPEKRKNSTQPEKESNLDRLNEQGNFKSLSQSSKEARTSDKHDSTRASSNKDFTPNRDKKTDYDTREYSSSKRRDEKNELTRRKDSPSRNKDSASGQKNKPREERDLPKKGTGDSKKSNSSPSRDRKPHDHKATYDTKRPNEETKSVDKNPCKDREKHVLEARNNKESSGNKLLYILNPPETQVEKEQITGQIDKSTVKPKPQLSHSSRLSSDLTRETDEAAFEPDYNESDSESNVSVKEEESSGNISKDLKDKIVEKAKESLDTAAVVQVGISRNQSHSSPSVSPSRSHSPSGSQTRSHSSSASSAESQDS
